Experimental data as given in PMC4161388.
Results are given in words; binding and its absence hold for the method and conditions named. Binding seen in cells or lysates may run through a third protein. Some entries that bind do so weakly or less than the wild type. Tags and fused reporters may be left off the sequences shown.

Amino acid sequences for entries named in this document (tags omitted). Residues count along the entry.
UniProt Q10589, residues 1-161: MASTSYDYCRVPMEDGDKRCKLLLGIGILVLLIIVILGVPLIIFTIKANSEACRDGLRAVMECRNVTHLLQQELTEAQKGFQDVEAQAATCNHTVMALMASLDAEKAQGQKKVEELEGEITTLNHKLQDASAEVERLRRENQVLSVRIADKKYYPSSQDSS

Target: human tetherin, wild type (human) (UniProt Q10589)
Assay: co-IP; 293 cells cotransfected with N-terminally HA-tagged human RICH2 and tetherin; IP with anti-tetherin antibody; blots for HA and tetherin

B1: N-terminally HA-tagged human RICH2 (protein, UniProt Q17R89 1-818)
chain: MKKQFNRMRQLANQTVGRAEKTEVLSEDLLQVEKRLELVKQVSHSTHKKLTACLQGQQGAEADKRSKKLPLTTLAQCLMEGSAILGDDTLLGKMLKLCGETEDKLAQELIHFELQVERDVIEPLFLLAEVEIPNIQKQRKHLAKLVLDMDSSRTRWQQTSKSSGLSSSLQPAGAKADALREEMEEAANRVEICRDQLSADMYSFVAKEIDYANYFQTLIEVQAEYHRKSLTLLQAVLPQIKAQQEAWVEKPSFGKPLEEHLTISGREIAFPIEACVTMLLECGMQEEGLFRVAPSASKLKKLKAALDCCVVDVQEYSADPHAIAGALKSYLRELPEPLMTFELYDEWIQASNVQEQDKKLQALWNACEKLPKANHNNIRYLIKFLSKLSEYQDVNKMTPSNMAIVLGPNLLWPQAEGNITEMMTTVSLQIVGIIEPIIQHADWFFPGEIEFNITGNYGSPVHVNHNANYSSMPSPDMDPADRRQPEQARRPLSVATDNMMLEFYKKDGLRKIQSMGVRVMDTNWVARRGSSAGRKVSCAPPSMQPPAPPAELAAPLPSPLPEQPLDSPAAPALSPSGLGLQPGPERTSTTKSKELSPGSAQKGSPGSSQGTACAGTQPGAQPGAQPGASPSPSQPPADQSPHTLRKVSKKLAPIPPKVPFGQPGAMADQSAGQPSPVSLSPTPPSTPSPYGLSYPQGYSLASGQLSPAAAPPLASPSVFTSTLSKSRPTPKPRQRPTLPPPQPPTVNLSASSPQSTEAPMLDGMSPGESMSTDLVHFDIPSIHIELGSTLRLSPLEHMRRHSVTDKRDSEEESESTAL
binding: binds
